Patent US20060142187A1
Results are given in words; binding and its absence hold for the method and conditions named. Some entries that bind do so weakly or less than the wild type.

Target: T1, C1s (UniProt P09871)
T1 sequence (looked up): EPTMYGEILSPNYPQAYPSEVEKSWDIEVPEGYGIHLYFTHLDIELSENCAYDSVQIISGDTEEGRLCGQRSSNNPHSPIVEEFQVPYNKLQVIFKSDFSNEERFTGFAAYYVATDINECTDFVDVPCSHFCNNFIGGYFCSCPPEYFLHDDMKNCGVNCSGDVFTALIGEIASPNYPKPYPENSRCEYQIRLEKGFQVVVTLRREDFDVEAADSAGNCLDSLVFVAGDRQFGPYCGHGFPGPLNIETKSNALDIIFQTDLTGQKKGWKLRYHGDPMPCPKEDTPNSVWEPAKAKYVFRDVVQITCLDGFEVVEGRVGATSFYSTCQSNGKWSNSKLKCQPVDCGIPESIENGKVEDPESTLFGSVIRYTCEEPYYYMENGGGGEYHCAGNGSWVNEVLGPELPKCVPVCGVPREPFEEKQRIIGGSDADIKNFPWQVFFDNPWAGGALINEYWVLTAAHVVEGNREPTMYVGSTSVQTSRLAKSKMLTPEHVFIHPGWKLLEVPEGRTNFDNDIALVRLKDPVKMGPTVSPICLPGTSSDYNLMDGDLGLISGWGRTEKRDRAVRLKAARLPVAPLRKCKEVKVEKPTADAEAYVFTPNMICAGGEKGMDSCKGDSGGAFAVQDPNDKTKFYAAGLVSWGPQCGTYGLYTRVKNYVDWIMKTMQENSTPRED
Assay: complex-formation assay, SDS-PAGE with Coomassie stain

B1: human plasma-derived C1 inhibitor (C1INH) (protein)
chain: NPNATSSSSQDPESLQDRGEGKVATTVISKMLFVEPILEVSSLPTTNSTTNSATKITANTTDEPTTQPTTEPTTQPTIQPTQPTTQLPTDSPTQPTTGSFCPGPVTLCSDLESHSTEAVLGDALVDFSLKLYHAFSAMKKVETNMAFSPFSIASLLTQVLLGAGENTKTNLESILSYPKDFTCVHQALKGFTTKGVTSVSQIFHSPDLAIRDTFVNASRTLYSSSPRVLSNNSDANLELINTWVAKNTNNKISRLLDSLPSDTRLVLLNAIYLSAKWKTTFDPKKTRMEPFHFKNSVIKVPMMNSKKYPVAHFIDQTLKAKVGQLQLSHNLSLVILVPQNLKHRLEDMEQALSPSVFKAIMEKLEMSKFQPTLLTLPRIKVTTSQDMLSIMEKLEFFDFSYDLNLCGLTEDPDLQVSAMQHQTVLELTETGVEAAAASAISVARTLLVFEVQQPFLFVLWDQQHKFPVFMGRVYDPRA
modifications: natively glycosylated; carries a sialyl Lewis x-related moiety on its N-glycan
In the case of B1, the binding is reported as “binds”.
